Source: doi:10.1101/776567
These are yes or no findings as the source states them, for the method shown. Some binding calls cover weakened binding; strength is not graded here.

Chains of the proteins cited; added tags and fusions are not shown.
UniProt Q9UJ41: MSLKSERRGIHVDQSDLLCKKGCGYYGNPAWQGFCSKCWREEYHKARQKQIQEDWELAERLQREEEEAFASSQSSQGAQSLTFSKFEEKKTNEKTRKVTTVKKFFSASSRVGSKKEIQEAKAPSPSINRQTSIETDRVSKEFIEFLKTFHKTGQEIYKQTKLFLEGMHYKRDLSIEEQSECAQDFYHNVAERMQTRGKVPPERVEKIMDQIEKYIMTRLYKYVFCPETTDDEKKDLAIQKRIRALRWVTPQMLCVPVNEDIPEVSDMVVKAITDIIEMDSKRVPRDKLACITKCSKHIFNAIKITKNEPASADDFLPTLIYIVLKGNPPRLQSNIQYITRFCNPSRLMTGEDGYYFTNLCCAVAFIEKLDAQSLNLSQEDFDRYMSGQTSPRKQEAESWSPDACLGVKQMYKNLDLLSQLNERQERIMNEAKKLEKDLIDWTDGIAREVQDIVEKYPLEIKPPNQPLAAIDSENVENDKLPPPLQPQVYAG

Molecular target: T1, Rabaptin5 (UniProt Q15276)
T1 sequence: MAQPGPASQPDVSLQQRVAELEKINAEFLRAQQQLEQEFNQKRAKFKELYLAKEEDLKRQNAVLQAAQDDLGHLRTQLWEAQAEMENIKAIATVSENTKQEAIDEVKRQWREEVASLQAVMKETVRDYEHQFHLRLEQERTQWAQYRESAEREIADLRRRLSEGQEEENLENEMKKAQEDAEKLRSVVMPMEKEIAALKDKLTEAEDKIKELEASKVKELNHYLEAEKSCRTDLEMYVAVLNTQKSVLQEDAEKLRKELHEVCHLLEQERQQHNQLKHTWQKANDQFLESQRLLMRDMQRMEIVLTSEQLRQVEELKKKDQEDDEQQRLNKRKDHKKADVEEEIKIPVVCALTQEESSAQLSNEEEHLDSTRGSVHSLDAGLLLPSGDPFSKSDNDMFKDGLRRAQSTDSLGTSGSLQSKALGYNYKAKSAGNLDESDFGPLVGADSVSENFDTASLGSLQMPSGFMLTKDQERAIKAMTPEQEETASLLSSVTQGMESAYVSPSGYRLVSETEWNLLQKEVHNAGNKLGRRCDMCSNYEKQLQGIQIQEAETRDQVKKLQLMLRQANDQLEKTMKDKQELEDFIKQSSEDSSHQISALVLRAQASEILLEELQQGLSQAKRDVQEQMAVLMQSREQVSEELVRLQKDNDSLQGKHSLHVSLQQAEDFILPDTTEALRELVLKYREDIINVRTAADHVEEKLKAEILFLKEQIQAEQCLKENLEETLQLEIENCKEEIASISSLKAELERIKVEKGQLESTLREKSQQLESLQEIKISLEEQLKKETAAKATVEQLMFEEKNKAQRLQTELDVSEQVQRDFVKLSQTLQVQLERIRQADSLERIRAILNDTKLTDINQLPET
Assay: co-purification

## Rabex5 (from UniProt Q9UJ41 1-491) (enzyme)
  binding: binds
